The values below come from PubChem BioAssay AID248 (DTP/NCI, 2004).

Molecules are shown by their SMILES. The list is a part of this screen's results and no random one: it is rich in T/C values a quarter to a half above the control, in often repeated tests (any T/C) and in doses without a T/C. Other doses and runs of a compound stand elsewhere. T/C is the treated group as % of the vehicle group. Some entries give survivors of the animals treated and no T/C: the source files T/C as zero there, which appears to mark a toxic dose or a test without result, not a measured value. Some doses without a T/C left all or most animals alive at the check, yet need not have been tolerated: survival well below the control is almost never listed, so the zero probably covers shortened survival too. Survivors were counted at the toxicity check, usually on the fifth day, unless a day is given; later deaths do not show. Schedule codes are those of the source, read here as Q, the interval in days (D) or hours (H), X, the number of doses. Some schedule codes hold Z or #, which are not explained here. Some entries hold several experiments; their values stand side by side, smallest first. For survival time, this PubChem deposit counts one and a half times the control or more as active, and values a quarter to a half above the control carry no call in these data; other NCI protocols may use other cut-offs. Additions like (4×) count equal records among those shown.

The experiment deals with L1210 leukemia ip in BDF1 mice, survival T/C. The experiment is described as follows: NCI In Vivo Anticancer Drug Screen. Data for tumor model L1210 Leukemia (intraperitoneal) in B6D2F1 (BDF1) mice. The conditions noted are these: T/C endpoint: mean survival time, higher T/C = longer survival.
Setting [1] is: dose: 400.0 mg/kg/injection, schedule: Q04DX002 (ip), vehicle: saline.
[2] abbreviates: dose: 400.0 mg/kg/injection, schedule: Q01DX009 (ip), vehicle: saline with Tween-80.
Setting [3] is: dose: 40.0 mg/kg/injection, schedule: Q04DX003 (ip), vehicle: Klucel (hydroxypropylcellulose) (HPC).
The mark [4] stands for this setting: dose: 200.0 mg/kg/injection, schedule: Q01DX009 (ip), vehicle: saline.
The mark [5] stands for this setting: dose: 400.0 mg/kg/injection, schedule: Q01DX001 (ip), vehicle: Klucel (hydroxypropylcellulose) (HPC).
The mark [6] stands for this setting: dose: 400.0 mg/kg/injection, schedule: Q04DX003 (ip), vehicle: saline.
[7] abbreviates: dose: 100.0 mg/kg/injection, schedule: Q01DX001 (ip), vehicle: Klucel (hydroxypropylcellulose) (HPC).

On to `ClCCN(CCCl)c1ccc(/C=C\c2ccnc3ccccc23)cc1`, for which the survivor count was 6 of 6 (dose: 100.0 mg/kg/injection, schedule: Q01DX009 (ip), vehicle: other); 6 of 6 (dose: 200.0 mg/kg/injection, schedule: Q01DX009 (ip), vehicle: carboxymethylcellulose (CMC)); 6 of 6 (dose: 400.0 mg/kg/injection, schedule: Q01DX009 (ip), vehicle: carboxymethylcellulose (CMC)); 5 of 6 (dose: 400.0 mg/kg/injection, schedule: Q01DX009 (ip), vehicle: other).

For `BrC[P+](c1ccccc1)(c1ccccc1)c1ccccc1`, the survivor count reads like this: (dose: 25.0 mg/kg/injection, schedule: Q04DX002 (ip), vehicle: saline) 0 of 3; (dose: 50.0 mg/kg/injection, schedule: Q04DX002 (ip), vehicle: saline) 0 of 3; (dose: 100.0 mg/kg/injection, schedule: Q04DX002 (ip), vehicle: saline) 0 of 3; (dose: 200.0 mg/kg/injection, schedule: Q04DX002 (ip), vehicle: saline) 0 of 3; under setting [1], 0 of 3.

In the case of `c1ccc(CCCSc2ccccc2)cc1`, the survivor count under setting [2] is listed as 3 of 6.

As to `CC(=O)OCC1OC(n2cnc3c(=S)nc(N)[nH]c32)CC1OC(C)=O` (stereo unspecified), the T/C was 134 % of control (dose: 5.0 mg/kg/injection, schedule: Q01DX002 (ip), vehicle: Klucel (hydroxypropylcellulose) (HPC)); 131 % of control (dose: 20.0 mg/kg/injection, schedule: Q04DX003 (ip), vehicle: Klucel (hydroxypropylcellulose) (HPC)); 145 % of control under setting [3].

Turning to `c1ccc(Nc2ncc3cnccn23)cc1`, the survivor count is on record as 2 of 6 under setting [4] and 0 of 6 (dose: 400.0 mg/kg/injection, schedule: Q01DX009 (ip), vehicle: saline).

Take `CC1=NNC(=O)C1(Br)Br`: the survivor count is reported as 0 of 6 (dose: 100.0 mg/kg/injection, schedule: Q01DX001 (ip), vehicle: other); 0 of 6 (dose: 200.0 mg/kg/injection, schedule: Q01DX001 (ip), vehicle: other); 0 of 6 (dose: 400.0 mg/kg/injection, schedule: Q01DX001 (ip), vehicle: other).

`Cc1ccc(C(=O)c2ccc(C)cc2)cc1`: the T/C under setting [1] is 142 % of control.

For `N#Cc1ccc[nH]1`, where the note is “dose: 400.0 mg/kg/injection, schedule: Q01DX001 (sc), vehicle: carboxymethylcellulose (CMC)”, the T/C is 134 % of control. The survivor count (dose: 600.0 mg/kg/injection, schedule: Q01DX001 (ip), vehicle: carboxymethylcellulose (CMC)) was 0 of 4.

With `CCO/C=C/C(=O)NC(=S)Nc1ccccc1`, the survivor count under setting [2] is given as 6 of 6.

`C/C(=N/NC(N)=S)c1ccc[nH]1`: the survivor count under setting [5] is 0 of 6.

For the molecule `C=CCN(C(=O)CCN1CC1)C1CCCCC1`, the survivor count is reported as 2 of 4 (dose: 50.0 mg/kg/injection, schedule: Q01DX001 (ip), vehicle: carboxymethylcellulose (CMC)); 0 of 4 (dose: 100.0 mg/kg/injection, schedule: Q01DX001 (ip), vehicle: carboxymethylcellulose (CMC)); 0 of 4 (dose: 200.0 mg/kg/injection, schedule: Q01DX001 (ip), vehicle: carboxymethylcellulose (CMC)); 0 of 4 (dose: 400.0 mg/kg/injection, schedule: Q01DX001 (ip), vehicle: carboxymethylcellulose (CMC)).

Consider `C=CCNC(=O)Oc1cccc(NC(=O)/C=C/C)c1`, for which the survivor count by setting is: (dose: 200.0 mg/kg/injection, schedule: Q01DX009 (ip), vehicle: saline with Tween-80) 6 of 6; under setting [2], 5 of 6.

For the molecule `[O-][n+]1c2ccccc2c(Oc2ccccc2)c2ccc3ccccc3c21`, the survivor count (dose: 200.0 mg/kg/injection, schedule: Q04DX003 (ip), vehicle: saline with Tween-80) is reported as 3 of 3.

`C/C(=N\N=C(/C)c1ccc(N)cc1)c1ccc(N)cc1`: the survivor count (dose: 200.0 mg/kg/injection, schedule: Q01DX001 (ip), vehicle: saline) is reported as 6 of 6.

For `C#CCCCCC#CCCCCCl`, the survivor count (dose: 400.0 mg/kg/injection, schedule: Q04DX003 (ip), vehicle: acetone) is listed as 3 of 6.

Consider `COc1cccc(/C(=C/c2ccc([N+](=O)[O-])cc2)C(=O)O)c1`, for which the T/C reads like this: (dose: 100.0 mg/kg/injection, schedule: Q04DX002 (ip), vehicle: Klucel (hydroxypropylcellulose) (HPC)) 93, 96 (2×), 99 % of control; (dose: 200.0 mg/kg/injection, schedule: Q04DX002 (ip), vehicle: Klucel (hydroxypropylcellulose) (HPC)) 86, 93, 99, 101 % of control; (dose: 400.0 mg/kg/injection, schedule: Q04DX002 (ip), vehicle: Klucel (hydroxypropylcellulose) (HPC)) 99, 105, 120, 125 % of control.

As to `O=C(O)C1CCSS1` (stereo unspecified), the survivor count by setting is: under setting [4], 2 of 6; (dose: 300.0 mg/kg/injection, schedule: Q01DX009 (ip), vehicle: saline) 0 of 6; under setting [6], 0 of 6.

Turning to `CC(=O)Oc1ccc(C[n+]2ccccc2)cc1`, the survivor count (dose: 50.0 mg/kg/injection, schedule: Q01DX009 (ip), vehicle: saline) is given as 5 of 6; the survivor count (dose: 100.0 mg/kg/injection, schedule: Q04DX003 (ip), vehicle: saline) was 0 of 6 and 1 of 6; the survivor count (dose: 200.0 mg/kg/injection, schedule: Q04DX003 (ip), vehicle: saline) is 0 of 6; the survivor count under setting [6] is reported as 0 of 6.

As for `O=C(Nc1ccc(C(=O)O)c(O)c1)Nc1ccccc1C(F)(F)F`, the survivor count (dose: 400.0 mg/kg/injection, schedule: Q04DX002 (ip), vehicle: carboxymethylcellulose (CMC)) is recorded as 3 of 3.

`CC(C)(C)OC(=O)C1=CNCCC1`: under setting [6], the survivor count is listed as 0 of 6.

`CC/C=C(\C)C1(CC)C(=O)NC(=S)NC1=O`: the survivor count runs as follows: (dose: 150.0 mg/kg/injection, schedule: Q01DX001 (ip), vehicle: carboxymethylcellulose (CMC)) 1 of 6; (dose: 300.0 mg/kg/injection, schedule: Q01DX001 (ip), vehicle: carboxymethylcellulose (CMC)) 0 of 6.

`CCCC1(CC)C(=O)N=C(N)NC1=O` (stereo unspecified): the survivor count under setting [7] is listed as 0 of 3.

As for `N#CC1=C(C#N)C(=O)C(Cl)=C(Cl)C1=O`, the survivor count by setting is: (dose: 25.0 mg/kg/injection, schedule: Q01DX009 (ip), vehicle: saline) 0 of 6; (dose: 50.0 mg/kg/injection, schedule: Q04DX003 (ip), vehicle: saline sonified) 0 of 6.

As to `COc1ccc(CCNC(=O)Cc2ccccc2)cc1OC`, the survivor count (dose: 400.0 mg/kg/injection, schedule: Q04DX003 (ip), vehicle: saline with Tween-80) is 5 of 6.

`Cc1ncnc(N)c1CCC(C)C`: the survivor count under setting [7] is on record as 0 of 6; the survivor count (dose: 200.0 mg/kg/injection, schedule: Q01DX001 (ip), vehicle: Klucel (hydroxypropylcellulose) (HPC)) is given as 0 of 6; the survivor count under setting [5] is given as 0 of 6.

As for `COc1ccc(-c2ccc(OC)c(OC)c2OC)c(N)c1`, the survivor count (dose: 35.0 mg/kg/injection, schedule: Q01DX Z (ip), vehicle: carboxymethylcellulose (CMC)) is given as 6 of 6.

Consider `O=CNC(Cc1ccccc1)Cc1ccccc1`, for which the survivor count is 3 of 6 under setting [3] and 0 of 6 (dose: 80.0 mg/kg/injection, schedule: Q04DX003 (ip), vehicle: Klucel (hydroxypropylcellulose) (HPC)).
